Library compounds against nucleic acid targets

Targets, with sequences 5′ to 3′:
TPP: TPP riboswitch RNA three-way junction, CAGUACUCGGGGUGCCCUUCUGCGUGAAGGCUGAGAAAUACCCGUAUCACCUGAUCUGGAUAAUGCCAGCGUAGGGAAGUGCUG. Hit rate about 0.7% of about 24,000 compounds.
PreQ1: PreQ1 riboswitch RNA pseudoknot, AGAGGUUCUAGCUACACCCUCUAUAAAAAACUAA. From B. subtilis. Hit rate about 0.7% of about 24,000 compounds.
SAM-II: SAM-II riboswitch RNA pseudoknot, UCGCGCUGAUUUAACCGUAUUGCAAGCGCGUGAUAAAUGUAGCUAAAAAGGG. Hit rate about 1% of about 21,000 compounds.

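Each compound is printed as two spots on a slide made to bind it covalently, so it has no test concentration; the read-out is fluorescence of the bound, labelled oligonucleotide. For the PreQ1, TPP and SAM-II riboswitches the laboratory earlier reported (doi:10.1038/s41467-019-09493-3) 1 µM RNA, 2 h, and a rule that included a mean Z-score above 3 (spot signal-to-noise against the whole library), a score well above that on a control array, and duplicate spots agreeing (coefficient of variation under 100). The data file gives only the calls; its cut-offs may differ, and compounds hitting several targets are kept. A missing hit is not proof of no binding, and a hit is not a measured affinity.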 A compound is marked Y if it was called a hit and N if it was screened but was not. Compounds were drawn at random from those tested, without regard to their results. A dash means that no call is listed here.

SMILES	TPP	PreQ1	SAM-II
Brc1ccc(Nc2cc(N3CCCCC3)ncn2)cc1	N	N	N
Cc1ccc([C@H]2CN(C(=O)c3ccc4nc(C)c(C)nc4c3)C[C@@H]2N)o1	N	N	N
Nc1nc(N)c(/N=N/c2ccc(C(=O)O)cc2)c(N)n1	N	N	N
COCCN(Cc1cccs1)C(=O)[C@H](N)c1ccccc1	N	N	N
NS(=O)(=O)c1ccc(CNC2CC(=O)N(c3ccc(Cl)cc3)C2=O)cc1 (stereo not drawn)	N	N	N
CCn1ccnc1CN(C)c1cc(N2CCOCC2)nc(N)n1	N	N	N
N#Cc1nc(-c2ccc(F)cc2)oc1NCCN1CCOCC1	N	N	N
COc1cc(CNC(C)Cc2cc(C)n[nH]2)ccc1OCCN1CCCC1 (stereo not drawn)	N	N	N
Clc1cccc2c3c([nH]c12)CCN(Cc1cc2n(n1)CCNC2)C3	N	N	N
CCc1nn(C)c(Cl)c1CN1CCC2(CCNCC2)C1	N	N	N
CCOC(=O)c1c(N)sc(C(=O)Nc2ccccc2C)c1C	N	N	N
CCOc1cccc(C2c3c(-c4ccccc4O)n[nH]c3C(=O)N2CCCO)c1 (stereo not drawn)	N	N	-
Cc1ccc(OCC(O)Cn2c(C3CC(=O)N(c4ccccc4)C3)nc3ccccc32)cc1C (stereo not drawn)	N	N	-
Cc1cc(COc2ccccc2)oc1C(=O)N1CCOCC(O)C1 (stereo not drawn)	N	N	N
COc1ccc(-c2noc(-c3nnn(-c4ccc(C(F)(F)F)c(Cl)c4)c3N)n2)cc1	N	N	-
O=C(Nc1cnc2ccccc2c1)c1ccccc1C1CCNC1 (stereo not drawn)	N	N	N
O=C(C=Cc1cccc(S(=O)(=O)Nc2ccccc2)c1)NO	N	N	N
N#CC1=C(N)N(c2ccccc2)C2=C(C(=O)OC2)C12C(=O)N(Cc1cccc(Cl)c1)c1ccccc12 (stereo not drawn)	N	N	N
C=CCNc1cc(-c2ccccc2)nc2nncn12	N	N	-
CC(C)n1cc(CNCc2cn(CCC(N)=O)c3ccccc23)cn1	N	N	N
Cc1n[nH]c(C)c1C(N)C(=O)NCc1cc(C(F)(F)F)ccc1F (stereo not drawn)	N	N	N
c1ccc2c(c1)-c1ccccc1C2N1CCNCC1	N	N	N
Cc1nc(N(C)C)ncc1C(=O)N(C)[C@@H]1CS(=O)(=O)C[C@H]1O	N	N	N
CC(O)c1nc2ccccc2n1Cc1ccccc1Cl (stereo not drawn)	N	N	N
Cc1cc(C)c2nc(CN[C@H]3COC[C@H]3Cc3cc(C)no3)cc(O)c2c1	N	N	N
Cc1ccc(Nc2cc(C)nc3nc(Cc4ccccc4)nn23)cc1	N	N	-
CC1(C)Cc2ccccc2-c2nc(-c3ccccc3)n(CCO)c(=O)c21	N	N	N
COc1cc(C2NC(C(=O)O)Cc3c2[nH]c2ccccc32)cc(OC)c1OC (stereo not drawn)	N	N	N
CCOC(=O)C1=C(C)N(CCO)C(=O)NC1c1ccc(O)cc1 (stereo not drawn)	N	N	N
CCCn1cnc2cc(NCc3cccc(OC)c3OC)ccc21	N	N	N
C=CCNc1ccccc1C(=O)NC(C)Cc1ccncc1 (stereo not drawn)	N	N	N
CN(Cc1ccco1)CC(O)c1ccc2cc[nH]c2c1 (stereo not drawn)	N	N	N
COc1cccc(-c2cnc(NCc3ccc(C(C)C)cc3)n2C)c1	N	N	N
Cc1ccccc1-n1nc(CC2CCN(C)CC2)nc1-c1ccc(CO)o1	N	N	N
N[C@@H](Cc1ccccc1)c1nnc(SCc2cccc(Cl)c2)o1	N	N	N
Cc1nc(C2CCCN2S(=O)(=O)c2ccc(F)cc2)n(CCO)n1 (stereo not drawn)	N	N	N
c1ccc2c(c1)OCC(Cn1ccnc1-c1cn(C3CCNCC3)nn1)O2 (stereo not drawn)	N	N	N
CC(=O)c1c(C)nc(-c2ccc(Cl)cc2)nc1N	N	N	N
Cc1cc(N2CCN(C(=O)C3CCCN(C(N)=O)C3)CC2)nc(N)n1 (stereo not drawn)	N	N	N
CC[C@H]1COCCN1C(=O)[C@H](O)c1ccccc1	N	N	N
Nc1ncc(Br)cc1S(=O)(=O)Nc1ccc(Cl)c(C(F)(F)F)c1	N	N	-
CC(C)c1nc(N2CCN(CC3CCCCC3)C(CCO)C2)no1 (stereo not drawn)	N	N	N
CC(C)CNc1cc(Cl)c2noc3c2c1C(=O)c1ccccc1-3	N	N	N
O=S1(=O)C[C@H](NCc2ccncc2)[C@@H](S(=O)(=O)c2ccccc2)C1	N	N	-
CCS(=O)(=O)N1CCN(c2cc(Nc3ccc(C)cc3)nc(C)n2)CC1	N	N	-
Cc1cc(-c2nc3cc(N)ccc3o2)ccc1Br	N	N	Y
CCCn1cc(C(=O)NC(C)c2nnc3n2CCNCC3)c(C)n1 (stereo not drawn)	N	N	N
Fc1ccc(C(CCNCc2ccccc2)c2ccco2)cc1 (stereo not drawn)	N	N	N
Cn1c(N2CC[C@H](O)C2)nc2cc(C(=O)NCCc3cccs3)ccc21	N	N	N
N#Cc1ccc(COC[C@H]2O[C@@H](n3c(NCc4ccc(Cl)c(Cl)c4)nc4c(N)ncnc43)[C@@H](O)[C@@H]2O)cc1	N	N	N
Cc1cccn2c(=S)[nH]nc12	N	N	N
Nc1ccccc1N1CCCCC1	N	N	N
Cc1cc2nc(O)c(O)nc2cc1N	N	N	N
CC(C)c1cc(N2C[C@H](O)[C@@H](N3CCOCC3)C2)n2nccc2n1	N	N	N
COc1ccc(CCNCc2ccc(C(=O)O)cc2)cc1OC.Cl	N	N	N
CC(C)(N)C(=O)N1CCOC(CC(c2ccccc2)c2ccccc2)C1 (stereo not drawn)	N	N	N
CC1(C)C(N(O)C(=O)Nc2ccc(Cl)cc2)N(c2ccc(Cl)cc2)C(=O)N1CC(=O)NN=CC=Cc1ccc([N+](=O)[O-])o1 (stereo not drawn)	N	N	N
CCC1(C)CC(CCNCc2ccc(OC)c(OC)c2)(c2ccccc2OC)CCO1 (stereo not drawn)	N	N	N
C=CCc1cc(CN2CC[C@@H]3[C@@H](CCC(=O)N3CCN)C2)ccc1OC	N	N	N
Cc1nonc1C1CCCN1C(=O)c1cccc(NCc2cccnc2)c1C (stereo not drawn)	N	N	N

The last 7 entries again:

SMILES	TPP	PreQ1	SAM-II
CC(C)c1cc(N2C[C@H](O)[C@@H](N3CCOCC3)C2)n2nccc2n1	N	N	N
COc1ccc(CCNCc2ccc(C(=O)O)cc2)cc1OC.Cl	N	N	N
CC(C)(N)C(=O)N1CCOC(CC(c2ccccc2)c2ccccc2)C1 (stereo not drawn)	N	N	N
CC1(C)C(N(O)C(=O)Nc2ccc(Cl)cc2)N(c2ccc(Cl)cc2)C(=O)N1CC(=O)NN=CC=Cc1ccc([N+](=O)[O-])o1 (stereo not drawn)	N	N	N
CCC1(C)CC(CCNCc2ccc(OC)c(OC)c2)(c2ccccc2OC)CCO1 (stereo not drawn)	N	N	N
C=CCc1cc(CN2CC[C@@H]3[C@@H](CCC(=O)N3CCN)C2)ccc1OC	N	N	N
Cc1nonc1C1CCCN1C(=O)c1cccc(NCc2cccnc2)c1C (stereo not drawn)	N	N	N

Data from the ROBIN nucleic acid binder screens, doi:10.1002/anie.202211358.